PubChem BioAssay AID1347075 (National Center for Advancing Translational Sciences (NCATS), 2019)
In all, about 400,000 compounds went through this assay and about 5,500 (1.4%) were called active. The shares of active, inactive and inconclusive entries below differ from those in the screen. Calls follow the shape of the dose curve; as a rule, active = well fitted cell-killing curve with a large enough effect; inconclusive = small, poorly fitted or top-dose-only effect, or effect the other way; inactive = flat fitted curve, though single readings scatter. Potencies beside an inconclusive call are fits to weak or partial responses and may not hold up. Some structures have more than one record in an assay (separate samples or runs), and their calls can disagree.

assay: qHTS assay for MDR1-selective chemotherapeutics: Primary screen using the parental adenocarcinoma cell KB-3-1; settings: KB-3-1 viability, CellTiter-Glo ATP luminescence, 72 h; activity change, negative = cytotoxic: at 46.1 µM (top of the series); also: nearly all actives have a fitted effect of over 60% in size
Procedure, shortened: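 Viability of parental KB-3-1 cells, measured by CellTiter-Glo luminescence, followed a 72 h incubation at 37 °C with pinned compounds in phenol-red-free DMEM containing 10% FBS.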
% is scaled to controls: 0 for no effect and ±100 for the full control effect; potency is read from the fitted curve at half-maximal effect.

| SMILES | Potency | activity change, negative = cytotoxic |
| --- | --- | --- |
| CCN(CC)c1ccc(NC(=O)c2cccc(F)c2)c(C)c1 | active: 5.8 µM |  |
| COc1ccc(C(=O)Nc2ccccc2)cc1NC(=O)c1ccc([N+](=O)[O-])cc1 |  | inactive: -4.49% |
| N#CC(C#N)=C1C=CC=CN1/C(=C\c1ccco1)C(=O)c1ccc(Cl)cc1 |  | inactive: -32.2% |
| COc1ccc(NC(=O)Nc2ccc(Cc3ccncc3)cc2)c(OC)c1 | inconclusive: 20.6 µM [cytotoxic, single point] |  |
| O=C(COC(=O)Cn1cnc2ccccc21)Nc1ccc(Br)cc1 |  | inactive: 2% |
| Cc1cc(C)cc(OCC(=O)N(C)CC(=O)Nc2ccc(Cl)c(C(F)(F)F)c2)c1 | inconclusive: 18.4 µM [cytotoxic, single point] |  |
| Nc1c(C(=O)N2CCOCC2)sc2nc3c(cc12)CCCC3 |  | inactive: -14.4% |
| CC(C)c1ccc(NC2CCCN(C(=O)c3n[nH]c4c3CCC4)C2)cc1 (stereo unspecified) | inconclusive: 16.4 µM [cytotoxic, partial curve, poor fit] |  |
| O=[N+]([O-])c1cccc(-c2nc3ccccc3s/c2=N/O)c1 | inconclusive: 25.9 µM [cytotoxic, single point] |  |
| O=C(NNC(=O)c1ccc(Cl)cc1Cl)c1cnccn1 | inconclusive: 23.1 µM [cytotoxic, single point] |  |
| CCCCOc1ccc(C(=O)N/N=C/c2ccc(OCCN3CCCCC3)c(OC)c2)cc1 | inconclusive: 23.1 µM [cytotoxic, single point] |  |
| CC1(c2ccccc2)NC(=O)N(CC(=O)Nc2ccc3c(c2)OCO3)C1=O (stereo unspecified) | inconclusive: 17.8 µM [rising, single point] |  |
| CC1C2=C(CC(C)(C)CC2=O)NC2=C1C(=O)CC(C)(C)C2 |  | inactive: 0.121% |
| CC(C)CC(=O)N1CCN(c2ccc(NC(=O)c3ccco3)cc2)CC1 |  | inactive: -16.1% |
| CCc1ccc(-c2nc(CN3CCCC(C(=O)NCc4ccccc4Cl)C3)c(C)o2)cc1 (stereo unspecified) | inconclusive: 18.4 µM [cytotoxic, partial curve, poor fit] |  |
| C=C1C[C@H]2[C@@H]3C=C(C)C4=CC(=O)CC[C@]4(C)[C@H]3CC[C@]2(C)[C@@]1(OC(C)=O)C(C)=O |  | inactive: 0% |
| COc1ccc(C(NC(C)=O)c2cc(Cl)c3cccnc3c2O)cc1 (stereo unspecified) | inconclusive: 4.61 µM [cytotoxic, full curve, poor fit] |  |
| O=C(O)Cc1ccc(NC(=O)c2ccc(Cl)c(Cl)c2)cc1 | inconclusive: 3.26 µM [rising, partial curve, poor fit] |  |
| COc1cccc(Nc2ccc(N3CCCCC3)cc2)c1OC | inconclusive: 20.6 µM [cytotoxic, single point] |  |
| COc1cc2c(cc1OC)C(c1ccc(-c3ccc(Cl)c(Cl)c3)o1)=NCC2 | active: 16.4 µM |  |
| Cc1ccc(C)c(C(=O)OCC(=O)Nc2cccc(S(=O)(=O)N3CCCCC3)c2)c1 | active: 14.6 µM |  |
| COc1ccc(Nc2nnc(SCC(=O)NC3CCS(=O)(=O)C3)s2)cc1 (stereo unspecified) | inconclusive: 29.1 µM [cytotoxic, single point] |  |
| CC(C)c1ccc(/C=N/NC(=O)c2ccccc2Cl)cc1 | active: 14.6 µM |  |

| SMILES | Potency | activity change, negative = cytotoxic |
| --- | --- | --- |
| Nc1ccc(C(=O)OCC(=O)Nc2cc([N+](=O)[O-])ccc2F)cc1 |  | inconclusive: -0.393% |
| COCc1nnc(NC(=O)c2ccc(S(=O)(=O)N3CCOCC3)cc2)o1 |  | inactive: -4.08% |
| O=C(NC1CCCC1)c1ccc2c(c1)N(Cc1c(F)cccc1Cl)C(=O)c1ccccc1S2 |  | inactive: 2.14% |
| O=C(N/N=C/c1cc([N+](=O)[O-])ccc1O)c1cccc(N2CCCC2=O)c1 | inconclusive: 32.6 µM [cytotoxic, single point] |  |
| Cn1cnnc1SCC(=O)NCCC1=CCCCC1 |  | inactive: -2.51% |
| COc1ccc(NC(=O)c2sc(=O)n(Cc3ccc(F)c(Cl)c3)c2C)cc1OC | active: 4.61 µM |  |
| NC(=O)COc1ccc(-c2noc(COc3ccc(Cl)cc3)n2)cc1 |  | inactive: -17.5% |
| CCOC(=O)C1=C(CN2CCN(c3ccc(Cl)cc3)CC2)NC(=O)NC1c1ccc(F)cc1 (stereo unspecified) | inconclusive: 29.1 µM [cytotoxic, single point] |  |
| COc1cccc2c1Oc1ncccc1N(C(=O)CCC(=O)NCc1ccc(OC(C)C)cc1)C2 |  | inactive: -1.1% |
| C(=C\c1nc2ccccc2nc1/C=C/c1ccc2c(c1)OCO2)/c1ccc2c(c1)OCO2 | inconclusive: 6.51 µM [rising, partial curve] |  |
| CN1C(=O)C(c2nnc(Nc3cccc4ccccc34)s2)C2CC1(C)Oc1ccccc12 (stereo unspecified) | inconclusive: 32.6 µM [cytotoxic, single point] |  |
| Cc1cc2ccccn2c1C(=O)c1ccccc1F | inconclusive: 29.1 µM [cytotoxic, single point] |  |
| Cc1ccc(-n2c3c(c(=O)[nH]c2=O)C(NC(=O)C(C)(C)C)(C(F)(F)F)C(=O)N3)cc1 (stereo unspecified) |  | inactive: 1.92% |
| O=C(Nc1cccc(F)c1)C1CCN(c2nc3ccccc3nc2C(F)(F)F)CC1 | inconclusive: 29.1 µM [cytotoxic, single point] |  |
| O=C(O)c1ccc(-n2c(=O)c3ccccc3c3ccccc3c2=O)cc1 |  | inconclusive: -3.09% |
| Cn1c(=O)n(C)c2cc(NS(=O)(=O)c3ccc(Cl)cc3)c(NCc3ccccc3)cc21 | inconclusive: 32.6 µM [cytotoxic, single point] |  |
| CC(C)(C)c1ccc(Cn2nnc3c(=O)[nH]c(C4CCN(C(=O)c5ccco5)CC4)nc32)cc1 | inconclusive: 29.1 µM [cytotoxic, single point] |  |
| COc1cc(S(=O)(=O)n2c(C)nc3ccccc32)ccc1F | inconclusive: 18.4 µM [cytotoxic, single point] |  |
| CCOc1ccc(N(C(C)C(=O)N2CCCC2)S(C)(=O)=O)cc1 (stereo unspecified) |  | inactive: -0.258% |
| COC(=O)[C@@]1(C)[C@H]2C(=O)N(Cc3ccccc3)C(=O)[C@H]2[C@H]2CN=C(SCc3ccccc3)N21 | inconclusive: 0.0103 µM [rising, full curve] |  |
| CC(Nc1ccccc1)c1ccncc1 (stereo unspecified) | inconclusive: 18.4 µM [cytotoxic, single point] |  |
| COc1cc(/C=C2\SC(=Nc3ccccc3OC)NC2=O)ccc1O | active: 18.4 µM |  |
| Cc1cc([N+](=O)[O-])cc(/C=N\NC(=O)C2COc3ccccc3O2)c1O (stereo unspecified) | inconclusive: 29.1 µM [cytotoxic, single point] |  |

Two of the compounds above, as comma-separated lines.
SMILES,Potency,"activity change, negative = cytotoxic"
O=C(NC1CCCC1)c1ccc2c(c1)N(Cc1c(F)cccc1Cl)C(=O)c1ccccc1S2,,inactive: 2.14%
O=C(N/N=C/c1cc([N+](=O)[O-])ccc1O)c1cccc(N2CCCC2=O)c1,"inconclusive: 32.6 µM [cytotoxic, single point]",
